Reference: paper PMC8630017, “Structural insights into proteolytic activation of the human Dispatched1 transporter for Hedgehog morphogen release” (Nature Communications, 2021)
Results are given in words; binding and its absence hold for the method and conditions named. Binding seen in cells or lysates may run through a third protein. A result given as binding can be weak or reduced; the word gives no strength.

The chains behind the UniProt entries cited, without tags or fusion partners. Where a name states a change or a piece, a line headed by the entry shows the natural chain unless it says otherwise.
UniProt Q96F81: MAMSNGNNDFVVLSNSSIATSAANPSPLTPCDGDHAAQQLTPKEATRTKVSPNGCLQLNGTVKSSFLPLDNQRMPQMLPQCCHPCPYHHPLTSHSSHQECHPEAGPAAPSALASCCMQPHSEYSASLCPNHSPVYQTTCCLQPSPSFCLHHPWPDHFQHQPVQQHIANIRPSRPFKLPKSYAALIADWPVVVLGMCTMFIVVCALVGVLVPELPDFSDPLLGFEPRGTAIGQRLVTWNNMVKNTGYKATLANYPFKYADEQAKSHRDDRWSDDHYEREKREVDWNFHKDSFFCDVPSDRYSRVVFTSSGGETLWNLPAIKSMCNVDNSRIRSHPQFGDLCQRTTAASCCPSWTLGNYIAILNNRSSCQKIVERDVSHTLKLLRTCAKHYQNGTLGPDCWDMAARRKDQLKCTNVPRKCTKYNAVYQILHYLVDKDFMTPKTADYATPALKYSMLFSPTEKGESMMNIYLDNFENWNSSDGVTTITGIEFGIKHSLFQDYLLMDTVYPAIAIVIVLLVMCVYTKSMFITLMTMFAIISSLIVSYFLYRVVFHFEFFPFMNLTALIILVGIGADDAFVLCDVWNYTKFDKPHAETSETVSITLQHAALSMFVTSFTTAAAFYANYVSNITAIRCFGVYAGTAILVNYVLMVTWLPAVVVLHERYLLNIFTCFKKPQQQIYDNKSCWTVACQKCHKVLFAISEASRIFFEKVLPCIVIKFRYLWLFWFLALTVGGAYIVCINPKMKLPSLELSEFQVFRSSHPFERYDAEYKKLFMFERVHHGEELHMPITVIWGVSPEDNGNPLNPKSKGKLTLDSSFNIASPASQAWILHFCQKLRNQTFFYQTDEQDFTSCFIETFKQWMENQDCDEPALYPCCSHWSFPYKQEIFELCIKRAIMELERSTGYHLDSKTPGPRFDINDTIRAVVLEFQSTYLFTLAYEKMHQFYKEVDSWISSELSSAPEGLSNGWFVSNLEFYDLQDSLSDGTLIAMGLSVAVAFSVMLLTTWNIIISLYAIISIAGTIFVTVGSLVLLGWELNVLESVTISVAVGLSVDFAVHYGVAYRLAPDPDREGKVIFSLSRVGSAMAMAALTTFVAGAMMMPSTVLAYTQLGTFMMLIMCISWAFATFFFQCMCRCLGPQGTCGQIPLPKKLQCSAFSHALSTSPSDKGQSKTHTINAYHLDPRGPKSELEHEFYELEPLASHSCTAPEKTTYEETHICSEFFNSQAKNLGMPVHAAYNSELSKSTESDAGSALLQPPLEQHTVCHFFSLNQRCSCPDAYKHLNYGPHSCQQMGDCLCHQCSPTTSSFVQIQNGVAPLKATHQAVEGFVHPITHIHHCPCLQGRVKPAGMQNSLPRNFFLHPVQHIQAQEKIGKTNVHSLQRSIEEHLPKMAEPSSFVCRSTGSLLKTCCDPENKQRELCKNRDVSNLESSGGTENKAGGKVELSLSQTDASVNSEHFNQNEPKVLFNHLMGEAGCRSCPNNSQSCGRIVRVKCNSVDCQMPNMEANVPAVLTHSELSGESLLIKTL
UniProt Q15465: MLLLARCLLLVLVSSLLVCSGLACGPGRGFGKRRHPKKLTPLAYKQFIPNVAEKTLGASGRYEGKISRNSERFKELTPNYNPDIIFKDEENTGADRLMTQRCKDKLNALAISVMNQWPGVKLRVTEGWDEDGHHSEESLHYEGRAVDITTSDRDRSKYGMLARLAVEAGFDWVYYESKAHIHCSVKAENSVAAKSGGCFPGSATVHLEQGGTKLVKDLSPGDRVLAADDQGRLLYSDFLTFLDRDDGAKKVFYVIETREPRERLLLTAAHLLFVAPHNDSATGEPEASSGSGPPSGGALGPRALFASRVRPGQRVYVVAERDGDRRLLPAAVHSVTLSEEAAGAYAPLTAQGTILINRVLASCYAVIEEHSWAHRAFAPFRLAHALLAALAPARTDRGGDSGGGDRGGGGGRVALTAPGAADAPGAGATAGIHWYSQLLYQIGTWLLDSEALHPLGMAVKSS

What was measured:
[1] = target: hDisp1^NNN (D572N, D573N, D1051N), N-terminal Flag tag and C-terminal Twin-Strep tag (human) (UniProt Q96F81); experiment: pull-down; hDisp1 constructs (Flag, Twin-Strep) co-expressed with hShh in HEK293F cells; membranes solubilised with 1% LMNG; anti-Flag resin, then Strep-Tactin resin; eluate analysed by Western blotting; 25 mM Tris pH 8.0, 150 mM NaCl
[2] = target: wild-type human Dispatched1 (hDisp1), N-terminal Flag tag and C-terminal Twin-Strep tag (human) (UniProt Q96F81); experiment: as above

In the case of “human Sonic hedgehog (hShh), expressed from the full-length precursor (from UniProt Q15465) (ligand)”, the binding [1] is reported as “binds” and the binding [2] is reported as “binds”.
